The supplement of paper PMC3334620
In all, about 33,000 sequences were measured (“E-score (-0.5 to 0.5)”: median about -0.0014, highest 2% from about 0.25 on). This is one part of the list.

target: T1, Cad1 (UniProt P24813); test: PBM E-score (8-mer binding enrichment) (E-score (-0.5 to 0.5)); higher = stronger / more preferred TF binding; conditions: protein concentration: 100 nM; construct: GST-full length
T1 sequence: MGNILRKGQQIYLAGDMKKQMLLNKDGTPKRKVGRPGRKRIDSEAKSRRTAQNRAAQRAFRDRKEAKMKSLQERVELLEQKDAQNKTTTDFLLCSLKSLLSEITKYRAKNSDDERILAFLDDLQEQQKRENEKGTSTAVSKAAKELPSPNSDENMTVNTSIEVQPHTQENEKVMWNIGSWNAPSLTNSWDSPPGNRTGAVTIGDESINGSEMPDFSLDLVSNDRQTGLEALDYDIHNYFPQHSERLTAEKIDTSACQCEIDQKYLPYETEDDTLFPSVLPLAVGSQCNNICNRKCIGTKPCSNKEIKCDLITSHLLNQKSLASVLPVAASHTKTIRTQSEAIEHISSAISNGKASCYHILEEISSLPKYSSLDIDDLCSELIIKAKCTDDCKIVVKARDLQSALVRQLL
How it was run: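 Yeast transcription factors carrying a GST tag, as full-length proteins or DNA-binding domains, were produced by PURExpress in vitro transcription/translation. About 100-200 nM protein was applied to universal all-10-mer Agilent arrays, double-stranded by primer extension on fresh or once-stripped slides. Bound protein was detected with fluorescent anti-GST, and scans were normalised with masliner. The Universal PBM Analysis Suite gave each ungapped eight-base word, pooled with its reverse complement, an E-score, a modified Wilcoxon-Mann-Whitney statistic.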

Going from AGAGCCCA to GAATTCTC, the “PBM E-score” value rises from -0.0735 to 0.14.

Compared with GATCCACC, AACGTGGT is higher in “PBM E-score” value: -0.206 for the first, -0.0017 for the second.

First: ATACTGGC
Second: GAAAGCCC
The “PBM E-score” value of the first is lower: -0.16 for the first, -0.0386 for the second.

Going from GCTCATAC to ATGAAGAA, the “PBM E-score” value falls from 0.0201 to -0.0437.

Compared with CCAGTATA, CCTTAAAA is lower in “PBM E-score” value: -0.0609 for the first, -0.0741 for the second.

Going from ATCCATAG to AGTCTATG, the “PBM E-score” value falls from 0.0116 to -0.134.

Compared with ATCAAGCA, TATGACGA is higher in “PBM E-score” value: 0.0448 for the first, 0.0525 for the second.

Going from CTGCGGTC to AGGACGCG, the “PBM E-score” value rises from -0.0674 to -0.00704.

Going from CACGACCG to AGCTCGCG, the “PBM E-score” value rises from -0.207 to 0.262.

Compared with ACGCCGAG, GAGTCGGA is higher in “PBM E-score” value: -0.173 for the first, -0.15 for the second.

First: GGTGCAAC
Second: ACAAGTTA
The “PBM E-score” value of the first is lower: -0.0495 for the first, 0.0637 for the second.

Going from ACGTCTGC to AAAAGACG, the “PBM E-score” value falls from 0.031 to -0.00093.

First: ATTATCTC
Second: CAGTAGAG
The “PBM E-score” value of the first is higher: 0.153 for the first, -0.159 for the second.

First: CTGGCAAG
Second: AGCTTATG
The “PBM E-score” value of the first is lower: -0.138 for the first, 0.0534 for the second.

Going from ATTGTTAC to CGGTTCGA, the “PBM E-score” value falls from 0.247 to 0.146.

Going from AGAGCCGG to TAAGGAAA, the “PBM E-score” value rises from -0.167 to 0.0987.

First: GCAGGAAA
Second: TGATGAAA
The “PBM E-score” value of the first is higher: -0.0367 for the first, -0.043 for the second.

Going from GTGCGAGA to CGGTCGAG, the “PBM E-score” value falls from -0.0227 to -0.215.

First: CTCTCTCC
Second: CCGGTAGC
The “PBM E-score” value of the first is lower: -0.276 for the first, -0.164 for the second.

Going from CTCAGTTA to CGAAGAAC, the “PBM E-score” value falls from 0.0821 to 0.072.

Compared with AATTAGTA, AGTCTCTA is lower in “PBM E-score” value: 0.316 for the first, -0.174 for the second.

Compared with ATTGCACG, CTCCCTGC is lower in “PBM E-score” value: 0.148 for the first, -0.163 for the second.

Compared with ACACCTCG, GAGGACGA is higher in “PBM E-score” value: -0.136 for the first, 0.0928 for the second.

First: ATGCGGTG
Second: CCTTGAAA
The “PBM E-score” value of the first is lower: -0.0963 for the first, 0.00948 for the second.

First: GAACCATA
Second: AAGGCACT
The “PBM E-score” value of the first is higher: 0.0124 for the first, -0.14 for the second.

Compared with TGAGACAA, TGAGTACA is higher in “PBM E-score” value: 0.0356 for the first, 0.0882 for the second.

First: ATAAGCAA
Second: CCATTGCG
The “PBM E-score” value of the first is higher: 0.296 for the first, -0.0669 for the second.

Compared with CCCTATGA, CTCATTAA is higher in “PBM E-score” value: -0.102 for the first, 0.115 for the second.

Compared with TCATTGGA, ATGAAACA is lower in “PBM E-score” value: 0.12 for the first, -0.0141 for the second.

Going from AGCAGCAC to TACAACTA, the “PBM E-score” value rises from -0.0396 to 0.0174.

Going from GACCAGCC to AGGGGTCG, the “PBM E-score” value falls from -0.093 to -0.116.

First: CTGCTGAA
Second: CTGTCGTC
The “PBM E-score” value of the first is lower: 0.0549 for the first, 0.0985 for the second.

Going from AGTGTCAC to AACACTAT, the “PBM E-score” value rises from 0.0965 to 0.174.

Going from GGATGACC to AGAGTAAG, the “PBM E-score” value rises from -0.194 to -0.0328.

Going from CCGTGCAA to ACTCAATA, the “PBM E-score” value rises from -0.0239 to 0.116.

First: GAATCGAA
Second: CATGTACG
The “PBM E-score” value of the first is higher: 0.106 for the first, 0.0283 for the second.

Going from CAGTCAGC to CTTCAAAA, the “PBM E-score” value rises from -0.0508 to -0.0254.

Going from AAAATGGA to ATAGTATA, the “PBM E-score” value falls from 0.267 to 0.00052.

First: AATAGGAC
Second: AATCGTAC
The “PBM E-score” value of the first is higher: 0.0966 for the first, -0.0133 for the second.

Compared with GCTTTATA, GCAATAAC is higher in “PBM E-score” value: -0.0237 for the first, 0.124 for the second.

Compared with GACCGACA, AATGTATA is higher in “PBM E-score” value: -0.11 for the first, 0.111 for the second.

First: GCATGGAA
Second: CAGCGTTC
The “PBM E-score” value of the first is lower: -0.0952 for the first, 0.0544 for the second.

Going from ACACCGAA to AGCGTCTA, the “PBM E-score” value falls from -0.0255 to -0.179.

First: GTCCGTCA
Second: AGAAACCT
The “PBM E-score” value of the first is higher: 0.0105 for the first, -0.00087 for the second.

Going from ACGTGACA to ACTGGACA, the “PBM E-score” value falls from 0.154 to -0.00506.

Going from ACTACTCT to GACCGAGC, the “PBM E-score” value falls from 0.096 to -0.13.

First: ATGATCCG
Second: AGTGGTAC
The “PBM E-score” value of the first is higher: 0.0247 for the first, -0.103 for the second.

First: ACGTTCCG
Second: CCTGCCAG
The “PBM E-score” value of the first is higher: -0.0396 for the first, -0.147 for the second.

Going from GTTCCGGA to AGAGGATA, the “PBM E-score” value falls from 0.143 to -0.092.

Compared with AGAATAGG, ATGCAGCG is lower in “PBM E-score” value: 0.0961 for the first, -0.0533 for the second.

Going from AAAACGAC to CAAAGGTG, the “PBM E-score” value falls from 0.0698 to -0.107.

First: GGCCAGCA
Second: CCCCCCGC
The “PBM E-score” value of the first is higher: -0.00264 for the first, -0.418 for the second.

First: GGCAGGCC
Second: GCTGTGCA
The “PBM E-score” value of the first is higher: -0.0559 for the first, -0.0876 for the second.

First: CTTTCCTC
Second: GCGACCCA
The “PBM E-score” value of the first is lower: -0.174 for the first, -0.136 for the second.

Compared with AATCCTAT, CCAGGTTC is lower in “PBM E-score” value: 0.193 for the first, -0.144 for the second.
